{
  "source": "PubChem BioAssay AID2685",
  "about": "(National Center for Advancing Translational Sciences (NCATS), 2010)",
  "test": "qHTS Assay for Lipid Storage Modulators in Drosophila S3 Cells;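 as to cell number change: cells counted by Cell Tracker Red CMTPX staining in the red channel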",
  "conditions": "BODIPY lipid droplet fluorescence, 18-24 h; for cell number change: measured here: cell count max response, cells fed with added oleic acid",
  "how_it_was_run": "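Drosophila S3 cells got compounds at several concentrations plus oleic acid (400 uM solution). Laser-scanning cytometry with 488 nm excitation read lipid droplets at 500-530 nm and cells at 575-640 nm. Percent activity was relative to 20 uM Triacsin C.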",
  "key": {"[1]": {"conditions": "measured here: cell number channel AC50, cells fed with added oleic acid"}, "[2]": {"conditions": "measured here: lipid fluorescence (Fed channel) AC50, cells fed with added oleic acid"}},
  "note": "Some of the results follow. Further columns of the screen follow, without active or inactive calls. Most of these compounds were active or inconclusive in the main read-out, so they are no random draw. Potencies come from curve fits of mixed quality, noted in brackets.",
  "data": [
    {"smiles": "CC(C)c1ccc(-c2c(C#N)c(N)nc3c2CCCCC3)cc1", "values": [
      {"measurement": "cell number change", "result": -45, "unit": "%"},
      {"measurement": "AC50", "setting": "[1]", "result": "29.1 µM [falling, single point]"}
    ]},
    {"smiles": "CC(OC(=O)Cc1n[nH]c(=O)c2ccccc12)C(=O)Nc1ccc(Cl)cn1", "note": "(centres undefined)", "values": [
      {"measurement": "cell number change", "result": -53, "unit": "%"},
      {"measurement": "AC50", "setting": "[1]", "result": "7.31 µM [falling, partial curve, poor fit]"},
      {"measurement": "AC50", "setting": "[2]", "result": "29.1 µM [falling, single point]"}
    ]},
    {"smiles": "Cc1cc(C)c2nc(NC(=O)c3cc(C)on3)sc2c1", "values": [
      {"measurement": "cell number change", "result": 2.06, "unit": "%"}
    ]},
    {"smiles": "CN(/N=C/c1cccc(Br)c1)C1=NS(=O)(=O)c2ccccc21", "values": [
      {"measurement": "cell number change", "result": 11.8, "unit": "%"},
      {"measurement": "AC50", "setting": "[2]", "result": "1.03 µM [falling, partial curve]"}
    ]},
    {"smiles": "CCOC(=O)c1c(C)[nH]c(C)c1S(=O)(=O)NC(CC)CN1CCOCC1", "note": "(centres undefined)", "values": [
      {"measurement": "AC50", "setting": "[2]", "result": "1.3 µM [rising, partial curve, poor fit]"}
    ]},
    {"smiles": "Cc1cccc(-n2cnc(C(=O)N/N=C\\c3ccc(Br)cc3)c2)n1", "values": [
      {"measurement": "cell number change", "result": 68, "unit": "%"},
      {"measurement": "AC50", "setting": "[1]", "result": "1.3 µM [rising, full curve]"},
      {"measurement": "AC50", "setting": "[2]", "result": "2.59 µM [rising, partial curve]"}
    ]},
    {"smiles": "CCc1ccc(NC(=O)C(CC)Sc2nc3cc4c(cc3c(=O)n2Cc2ccco2)OCO4)cc1", "note": "(centres undefined)", "values": [
      {"measurement": "cell number change", "result": 114, "unit": "%"},
      {"measurement": "AC50", "setting": "[1]", "result": "3.66 µM [rising, full curve, poor fit]"},
      {"measurement": "AC50", "setting": "[2]", "result": "5.8 µM [rising, full curve]"}
    ]},
    {"smiles": "COc1cn(-c2ccccc2)nc1C(=O)Nc1ccccc1", "values": [
      {"measurement": "AC50", "setting": "[2]", "result": "0.82 µM [falling, full curve]"}
    ]},
    {"smiles": "CC(C)Cc1ccc(CN2CCCC(NC(=O)c3ccnn3C)C2)cc1", "note": "(centres undefined)", "values": [
      {"measurement": "cell number change", "result": -23.8, "unit": "%"},
      {"measurement": "AC50", "setting": "[2]", "result": "25.9 µM [falling, partial curve, poor fit]"}
    ]},
    {"smiles": "COc1cccc(NC(=O)N(Cc2cc3cc(C)cc(C)c3[nH]c2=O)CC2COCCO2)c1", "note": "(centres undefined)", "values": [
      {"measurement": "cell number change", "result": -14.3, "unit": "%"}
    ]},
    {"smiles": "Cc1cc2nc(-c3ccc(SCc4ccc(C(=O)O)cc4)nc3)[nH]c2cc1C", "values": [
      {"measurement": "cell number change", "result": -40.8, "unit": "%"},
      {"measurement": "AC50", "setting": "[1]", "result": "23.1 µM [falling, single point]"},
      {"measurement": "AC50", "setting": "[2]", "result": "29.1 µM [falling, single point]"}
    ]},
    {"smiles": "Cc1ccc2cccc(Oc3ncnc4sc(C)c(C)c34)c2n1", "values": [
      {"measurement": "cell number change", "result": -5.4, "unit": "%"}
    ]},
    {"smiles": "COc1ccc(/C=C/C(=O)O)cc1S(=O)(=O)N1CCCC1", "values": [
      {"measurement": "cell number change", "result": -10.2, "unit": "%"}
    ]},
    {"smiles": "Cc1ccc2nc(/N=C(\\N)NC(=O)NC3CCCCC3)nc(C)c2c1", "values": [
      {"measurement": "cell number change", "result": -48, "unit": "%"},
      {"measurement": "AC50", "setting": "[1]", "result": "29.1 µM [falling, single point]"}
    ]},
    {"smiles": "N=c1c(S(=O)(=O)c2ccc(Cl)cc2)cc2c(=O)n3ccccc3nc2n1C1CCCC1", "values": [
      {"measurement": "AC50", "setting": "[2]", "result": "14.6 µM [falling, partial curve]"}
    ]},
    {"smiles": "Cc1ccc(-c2cc(-c3cccs3)[nH]n2)c(O)c1", "values": [
      {"measurement": "AC50", "setting": "[2]", "result": "29.1 µM [falling, single point]"}
    ]},
    {"smiles": "Cc1c(C(=O)OCC(C)C)[nH]c2c1C(=O)CC(c1cccs1)C2", "note": "(centres undefined)", "values": [
      {"measurement": "cell number change", "result": -6.83, "unit": "%"}
    ]}
  ]
}
